Data source: PubChem BioAssay AID1508597 (Cure First, 2020)
Assay: 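Knock-downs altering ovarian cancer cell survival with or without PARP inhibitor rucaparib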 (primary screen). Cell system: human ovarian carcinoma lines grown from tumours: OCI-P5x (papillary serous) and OCI-C5x (clear cell). Reagent: siRNA pool against human genes, 1.25 pmol siRNA per well. Duration: 72 h or 96 h, depending on the cell culture. Conditions: rucaparib 20 µM (about IC30) or vehicle, present until read-out. Rucaparib or vehicle: Rucaparib. Cell line: OCI-C5x (clear cell). Detection: 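ATP luminescence measured at 72 or 96 h according to the culture, then normalised and expressed as percent viability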. Direction: viability, normalised: higher = more viable cells remaining. Call rule: 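a well counts as a hit if its normalised viability is under 80 percent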. Calls: active = viability under 80%; inactive = viability 80% or more.
This is an unselected part of the about 2,100 reagents, under one of the conditions tested. 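Calls flag viability under 80% in either arm, not effects specific to rucaparib; the reference for percent is not stated.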 Unmarked entries are inactive. A reagent listed more than once was tested more than once; the source does not tell the runs apart. Not stated in the record: the 100% reference.

For HERC2 (GeneID 8924), technical replicate 1 the deposit lists viability, normalised (%) = 62.4 (active).
HERC2 (GeneID 8924), technical replicate 1 gave viability, normalised (%) = 56.6 (active).
With HERC2 (GeneID 8924), technical replicate 2, the values are viability, normalised (%) = 62.4 (active).
For HERC2 (GeneID 8924), technical replicate 2 the deposit lists viability, normalised (%) = 91.6.
HERC2 (GeneID 8924), technical replicate 3 gave viability, normalised (%) = 44.8 (active).
HERC2 (GeneID 8924), technical replicate 3 scored viability, normalised (%) = 87.3.

2 successive entries from above, for reference:
HERC2 (GeneID 8924), technical replicate 2 → viability, normalised (%): 62.4 (active)
HERC2 (GeneID 8924), technical replicate 2 → viability, normalised (%): 91.6

Continued:
ZCWPW2 (GeneID 152098), technical replicate 1 scored viability, normalised (%) = 54.8 (active).
For ZCWPW2 (GeneID 152098), technical replicate 2 the deposit lists viability, normalised (%) = 43.1 (active).
ZCWPW2 (GeneID 152098), technical replicate 3 gave viability, normalised (%) = 38 (active).
For OARD1 (GeneID 221443), technical replicate 1, the values are viability, normalised (%) = 69.1 (active).
For OARD1 (GeneID 221443), technical replicate 2 the deposit lists viability, normalised (%) = 62.3 (active).
With OARD1 (GeneID 221443), technical replicate 3, the values are viability, normalised (%) = 54.5 (active).
